US5681708A, “Method for screening compositions” (SmithKline Beecham Corporation, priority 1994, dated 1997)
At least one read-out could not be matched to a standard name with certainty.

Test system: CD4/Lck complex
Experiment: CD4/Lck complex ELISA on extracts of CEM cells treated with dissociating agents (FIG. 2)
Format: cell-based, human
Details: CEM cells treated with 50 nM PDBu at 37° C. for 15 minutes

CCCC(=O)O[C@@H]1[C@@H](C)[C@@]2(O)[C@@H](C=C(CO)C[C@]3(O)C(=O)C(C)=C[C@@H]23)[C@@H]2C(C)(C)[C@]12OC(=O)CCC [PDBu, phorbol dibutyrate]
reduction in generated signal: 60%
